# In PubChem BioAssay AID504850 (National Center for Advancing Translational Sciences (NCATS), 2011):
# About 1,200 (52%) of roughly 2,300 compounds were called active. The set was probably picked from earlier hits. Inconclusive means that the source gave no clear call. Such entries were picked first, then a sample of the others. The call rests on the fitted dose curve; in most records, active means well fitted inhibition curve with a large enough effect; inconclusive means small, poorly fitted or top-dose-only effect, or effect the other way; inactive means no such curve, though single readings can be large or run the other way. A potency beside an inconclusive call is a rough fit, not a confirmed value.
# Experiment: Confirmation screen for delayed death inhibitors of the malarial parasite plastid, 48 hour incubation; further: nearly all actives have a fitted effect of over 65% in size
# Conditions: P. falciparum-infected erythrocytes, luciferase growth; series mostly up to 28.7 µM
# In short: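 Erythrocytes infected with luciferase-expressing P. falciparum (2% hematocrit, 0.1% parasitemia) incubated with compounds 48 hours at 37 C, 5% CO2, in RPMI/Albumax. Growth inhibition scored as reduced luminescence after detection reagent.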
# Potency means the concentration at half of the fitted maximal effect.
row,SMILES,Potency
1,O=C(/C=C/c1cccc(O)c1)c1ccc(N2CCOCC2)cc1,"inconclusive: 2 µM [activator, full curve]"
2,CC(=O)c1c(C)cc(C)c(CSc2nc(C)cc(=O)[nH]2)c1C,inactive
3,Cc1ccc(C)c(SCc2noc(C(=O)NC(C)C)c2C(=O)O)c1,inactive
4,Cc1cccc[n+]1CC(=O)Nc1ccc([N+](=O)[O-])cc1,"inconclusive: 15.8 µM [inhibitor, single point]"
5,N#CC(C#N)=C1C=CC=CN1/C(=C\c1ccco1)C(=O)c1ccc(-c2ccccc2)cc1,"inconclusive: 14.1 µM [inhibitor, partial curve, poor fit]"
6,CCC(=O)N1c2ccccc2NC2=C(C(=O)CC(c3ccco3)C2)C1c1ccco1 (stereo unspecified),"inconclusive: 17.8 µM [inhibitor, partial curve, poor fit]"
7,Cc1ccccc1NC1=NCC(c2ccc([N+](=O)[O-])cc2)S1 (stereo unspecified),active: 11.2 µM
8,CCc1c(C)nc2nc(SCc3ccccc3Cl)[nH]n2c1=O,inactive
9,Clc1ccc(CNc2ccc(N3CCN(Cc4ccccc4)CC3)cc2)cc1,"inconclusive: 15.8 µM [inhibitor, single point]"
10,O=C(O)c1ccc(O)cc1O,"inconclusive: 7.08 µM [inhibitor, partial curve, poor fit]"
11,Cc1ccc(-c2nnn(CC(=O)Nc3ccc4nn(-c5ccccc5)nc4c3)n2)o1,inactive
12,C=C1CCC2[C@](C)(CO)[C@H](O)CC[C@@]2(C)[C@@H]1C/C=C1\C(=O)OC[C@H]1O (stereo partly specified),"inconclusive: 14.1 µM [inhibitor, partial curve, poor fit]"
13,CCOC(=O)c1sc(NC(=O)CC(C)c2ccccc2)nc1C (stereo unspecified),"inconclusive: 15.8 µM [inhibitor, single point]"
14,COCCn1c(SCC(=O)Nc2ccccc2F)nc2c(c1=O)SCC2,"inconclusive: 15.8 µM [inhibitor, single point]"
15,CC(=O)N[C@@H](Cc1c[nH]c2ccccc12)C(=O)NC1CCCc2ccccc21 (stereo partly specified),"inconclusive: 7.08 µM [inhibitor, partial curve, poor fit]"
16,COC(=O)c1ccc(C2N=C(c3cccs3)CC(c3ccccc3O)N2)cc1 (stereo unspecified),active: 8.91 µM
17,COc1ccc(/C=N/NC(=O)c2cc(-c3ccccc3)nc3ccccc23)cc1O,inactive
18,C=CCn1c(SCC(=O)NC2CCCC2)nc2sc(C)cc2c1=O,"inconclusive: 15.8 µM [inhibitor, partial curve, poor fit]"
19,O=C(CCC1N=C2c3ccccc3N=C(SCC(=O)NCc3ccco3)N2C1=O)NCc1ccco1 (stereo unspecified),inactive
20,OC(c1ccccc1)(c1ccccc1)C1CCN(C(=S)NCCc2ccccc2)CC1,active: 11.2 µM
21,O=C(N/N=C(\CC(=O)c1cccs1)C(F)(F)F)c1ccncc1,inactive
22,O=C(C1CC1)N1CCc2cc(Br)cc(S(=O)(=O)NCc3ccco3)c21,"inconclusive: 14.1 µM [inhibitor, single point]"
23,COc1ccc(N2CCN(C(=O)CSc3nc4cc(OC)c(OC)cc4cc3C#N)CC2)cc1,active: 7.94 µM

# Molecules listed so far with a COOH group, in the order listed:
row,SMILES,Potency
3,Cc1ccc(C)c(SCc2noc(C(=O)NC(C)C)c2C(=O)O)c1,inactive
10,O=C(O)c1ccc(O)cc1O,"inconclusive: 7.08 µM [inhibitor, partial curve, poor fit]"

# (list continues)

row,SMILES,Potency
1,O=C(Cn1cnc2c(nnn2Cc2ccc(F)cc2)c1=O)NCc1ccc2c(c1)OCO2,"inconclusive: 8.91 µM [inhibitor, single point]"
2,O=S1(=O)C=C(Sc2nnc(-c3ccccc3)o2)c2ccccc21,active: 12.6 µM
3,COc1ccc(C)cc1S(=O)(=O)Nc1cccc(-c2ccc(N3CCCCCC3)nn2)c1,"inconclusive: 15.8 µM [inhibitor, single point]"
4,Cn1cc([N+](=O)[O-])c(C(=O)Nc2ccn(Cc3c(F)c(F)cc(F)c3F)n2)n1,"inconclusive: 1.12 µM [activator, partial curve, poor fit]"
5,COc1ccc(CNC(=O)c2cc(S(=O)(=O)N3CCOCC3)cn2C)cc1,inactive
6,CCN(CC)CCn1c2c(c(SCC(=O)Nc3nc4ccccc4s3)nc1=O)CCCC2,active: 7.08 µM
7,Cc1ccc(-c2cc(C(=O)N/N=C/c3ccoc3)c3ccccc3n2)cc1,active: 12.6 µM
8,COc1ccccc1C1CCCN1Cc1nc(-c2ccc(C)s2)oc1C (stereo unspecified),"inconclusive: 14.1 µM [inhibitor, single point]"
9,Cc1ccccc1OCC(=O)Nc1nnc(-c2ccncc2)s1,"inconclusive: 14.1 µM [inhibitor, single point]"
10,CCC/C(C#CCCN1C(=O)c2ccccc2C1=O)=C1/c2ccccc2C(=O)N1c1ccccc1,active: 7.94 µM
11,Cc1nc(-c2ccccn2)sc1C(=O)Nc1ccc(Cl)c(Cl)c1,inactive
12,CSc1c[n+]2c(n1C)CCC2,inactive
13,COc1ccc(C2=Nn3c(nnc3-c3ccccc3F)SC2)cc1OC1CCCC1,"inconclusive: 20 µM [inhibitor, single point]"
14,Cc1ccccc1CN(C)Cc1cc(=O)oc2c(C)c(C)ccc12,"inconclusive: 15.8 µM [inhibitor, single point]"
15,COc1ccc(/C=C2\CCC/C(=C\C=N\N(C)C)C2=O)cc1,"inconclusive: 14.1 µM [inhibitor, single point]"
16,Cn1cc([N+](=O)[O-])c(C(=O)Nc2cnn(Cc3ccc(F)cc3)c2)n1,inactive
17,COc1ccc(C(=O)/C=C/c2cccnc2)c(OC)c1,active: 7.94 µM
18,COC(=O)c1cccc(C(=O)N2CCCC(C(=O)c3ccccc3OC)C2)c1 (stereo unspecified),"inconclusive: 15.8 µM [inhibitor, single point]"
19,Cc1cc(C)cc(NC(=O)C2C3C=CC4(O3)C2C(=O)N(CCCN2CCCC2)C4C(=O)NC2CCCC(C)C2C)c1 (stereo unspecified),"inconclusive: 11.2 µM [inhibitor, single point]"
20,O=C(CCN1C(=O)c2ccccc2C1=O)C1=NN[C@@H]2C(=O)N(c3ccc(F)cc3)C(=O)[C@H]12,inactive
21,Cc1ccc(-n2nnnc2SCC(=O)Nc2ccccc2-c2ccccc2)cc1C,inactive
22,CC1CCN(CCc2nc3cc(NS(=O)(=O)c4ccc(F)cc4)ccc3n2C)CC1,"inconclusive: 14.1 µM [inhibitor, single point]"
23,COc1ccc(/C=N/Nc2ccccc2C(=O)O)cc1,"inconclusive: 2.24 µM [activator, partial curve]"
